Data source: PubChem BioAssay AID686937 (Drosophila RNAi Screening Center, 2013)
In all, the deposit lists about 23,000 reagents; this is an unselected part of those with a known target gene and a result. 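Reduced-secretion tags in replicate 1 do not always agree with the z-scores; no criterion for assigning the tags was given.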 Names joined by + are all predicted targets of the reagent. Not given: the amount of reagent.

- Screen: 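Genes whose loss weakens secretory pathway function in fly cells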 (primary screen)
- Cells: Drosophila S2 cells expressing secreted horseradish peroxidase
- Knock-down reagent: long dsRNA against Drosophila genes
- Timing: about 5.5 days (5 days dsRNA, then 12 h reporter induction)
- Conditions: reporter expression induced after 5 days of dsRNA, read 12 h later; inducer not stated
- Measurement: 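After 5 days of dsRNA and 12 h of reporter induction, medium peroxidase read by chemiluminescence and scored as per-plate z-score; higher values mean more reporter released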
- Direction: z-score: higher = more reporter secreted into medium

z-score, replicate 1 | z-score, replicate 2 | phenotype, replicate 1 | predicted target | DRSC id
0.52 | 0.56 | – | CG3652 | DRSC00624
0.57 | 0.16 | – | Cyp303a1 (Cytochrome P450 303a1) | DRSC03300
0.38 | 0.33 | – | pan (pangolin) | DRSC17176
-0.79 | 0.57 | – | pan (pangolin) | DRSC22582
-3.45 | -2.37 | reduced secretion | Spx (Spliceosomal protein on the X) | DRSC18720
2.68 | 0.12 | – | CG31668 | DRSC22584
-0.25 | 0.34 | – | CG3604 | DRSC00618
0.45 | 0.34 | – | neur + asRNA:CR31429 | DRSC17013
0.27 | 0.46 | – | daw (dawdle) | DRSC00479
0.47 | 0.24 | – | Tehao | DRSC03449
0.26 | 0.43 | – | CR44003 + CG44002 | DRSC00523
0.63 | 0.36 | – | CR44003 + CG44002 | DRSC00606
0.11 | 0.34 | – | mei-38 (meiotic 38) | DRSC18564
0.04 | 0.31 | – | CG17097 | DRSC02569
0.08 | 0.03 | – | dyl (dusky-like) | DRSC08466
0.39 | 0.16 | – | dyl (dusky-like) | DRSC08467
0.27 | 0.17 | – | E(spl)m8-HLH (Enhancer of split m8, helix-loop-helix) | DRSC16654
0.22 | 0.33 | – | Pgant4 (Polypeptide N-Acetylgalactosaminyltransferase 4) | DRSC00717
0.4 | 0.4 | – | HP5 (Heterochromatin protein 5) | DRSC19773
0.49 | 0.43 | – | Archease | DRSC16025
0.41 | 0.23 | – | CG31760 | DRSC02590
0.22 | 0.35 | – | Kif3C (Kinesin family member 3C) | DRSC17209
0.52 | 0.42 | – | Kif3C (Kinesin family member 3C) | DRSC17210
0.15 | 0.36 | – | CG13476 | DRSC10019
-0.29 | -0.32 | – | CG8300 | DRSC18426
0.3 | 0.28 | – | CG11878 | DRSC14422
0.35 | 0.39 | – | sif (still life) | DRSC08759
0.51 | 0.21 | – | sif (still life) | DRSC11395
0.11 | -0.03 | – | sif (still life) | DRSC22065
-0.41 | 0.44 | – | sif (still life) | DRSC22828
0.16 | 0.25 | – | alpha-Est4 (alpha-Esterase-4) | DRSC12616
0.5 | 0.5 | – | Ir52a (Ionotropic receptor 52a) | DRSC06262
0.12 | 0.41 | – | CG42741 | DRSC04593
1.47 | 0.83 | – | CG42741 | DRSC22045
0.09 | 0.02 | – | CG14011 | DRSC02343
0.15 | 0.28 | – | TTLL4B (Tubulin tyrosine ligase-like 4B) | DRSC00636
0.21 | 0.61 | – | CG9123 | DRSC20156
0.1 | 0.04 | – | CG1137 | DRSC12529
0.3 | 0.36 | – | CG42362 + CG42363 | DRSC04265
0.23 | 0.15 | – | lncRNA:CR32657 (long non-coding RNA:CR32657) | DRSC19403
-0.33 | – | – | CG33757 | DRSC05159
0.4 | 0.54 | – | CG9649 | DRSC16534
0.2 | 0.32 | – | Ppox (Protoporphyrinogen oxidase) | DRSC17033
-1.01 | -0.94 | – | Cpr65Aw (Cuticular protein 65Aw) | DRSC08794
-0.02 | 0.2 | – | Vlet (Valette) | DRSC19845
0.42 | -0.03 | – | Ubc6 (Ubiquitin conjugating enzyme 6) | DRSC12370
-1.09 | -0.1 | – | lncRNA:CR33218 (long non-coding RNA:CR33218) | DRSC22944
0.21 | 0.21 | – | Cyp316a1 (Cytochrome P450 316a1) | DRSC11130
-0.01 | -0.04 | – | EMC8-9 (ER membrane protein complex subunit 8/9) | DRSC04380
0.08 | 0.31 | – | snk (snake) | DRSC17060
0.27 | 0.25 | – | CG7384 | DRSC03053
-0.07 | 0.45 | – | Gr64a (Gustatory receptor 64a) | DRSC21713
0.37 | 0.41 | – | CG15482 | DRSC02492
-0.57 | -1.46 | – | CkIIalpha (casein kinase IIalpha) | DRSC11946
-0.29 | -0.23 | – | foi (fear-of-intimacy) | DRSC10719
0.33 | 0 | – | Lon (Lon protease) | DRSC11049

Single entries from the entries so far:
Result for alpha-Est4 (alpha-Esterase-4) [DRSC12616] under “z-score, replicate 1”: 0.16
Under “z-score, replicate 2”, CG31760 [DRSC02590] reads 0.23
Under “z-score, replicate 2”, CG14011 [DRSC02343] has 0.02
